Results are given in words; binding and its absence hold for the method and conditions named. Binding seen in cells or lysates may run through a third protein. A yes stands for co-enrichment or nearness to the bait. Other partners may have been found. For some assays here: Tags and fused reporters may be left off the sequences shown. One block for each binder: values may come before it.
Assays:
[1] = biological target: T1, 3HA-3FLAG-tagged NUBP2 (nucleotide-binding protein 2) (human) (UniProt Q9Y5Y2); assay: affinity purification with mass spectrometry; anti-HA beads on lysates of Flp-In 293 cells expressing the 3HA-3FLAG-tagged bait (NUBP2, wildtype or mutant CIAO3); targeted proteomics assay (parallel reaction monitoring) of CIA components and substrates; CIAO3 purifications normalised to CIAO3; wildtype CIAO3 cells also treated with FAC or DFO for 8 h
T1 sequence: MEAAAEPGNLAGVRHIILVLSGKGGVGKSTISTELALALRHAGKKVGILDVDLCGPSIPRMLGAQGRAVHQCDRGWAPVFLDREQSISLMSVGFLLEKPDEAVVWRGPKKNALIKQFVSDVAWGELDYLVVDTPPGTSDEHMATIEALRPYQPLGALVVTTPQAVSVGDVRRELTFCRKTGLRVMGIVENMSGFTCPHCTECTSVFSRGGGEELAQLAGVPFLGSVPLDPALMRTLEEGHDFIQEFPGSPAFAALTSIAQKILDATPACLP

Protein sequences, listed by entry. Tags and fused reporters are not part of them. Lines headed by an entry give the natural chain unless they say otherwise; changes in a name come on top.
UniProt Q9H6Q4: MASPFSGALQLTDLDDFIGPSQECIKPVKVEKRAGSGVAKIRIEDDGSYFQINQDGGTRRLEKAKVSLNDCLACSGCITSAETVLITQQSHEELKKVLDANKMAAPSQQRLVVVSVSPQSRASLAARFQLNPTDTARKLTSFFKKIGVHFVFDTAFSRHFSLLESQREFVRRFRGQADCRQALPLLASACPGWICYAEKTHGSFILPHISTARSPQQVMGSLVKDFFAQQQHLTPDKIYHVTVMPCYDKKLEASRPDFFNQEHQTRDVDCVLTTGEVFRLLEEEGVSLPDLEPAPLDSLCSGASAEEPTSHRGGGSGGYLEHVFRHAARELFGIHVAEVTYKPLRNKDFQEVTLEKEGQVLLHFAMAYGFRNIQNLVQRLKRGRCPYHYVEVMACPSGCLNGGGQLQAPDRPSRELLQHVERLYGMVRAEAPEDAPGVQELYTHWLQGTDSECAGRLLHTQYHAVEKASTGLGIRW

[2] = biological target: 3HA-3FLAG-CIAO3-C190S/C395S (human) (UniProt Q9H6Q4); assay: as above
[3] = biological target: 3HA-3FLAG-CIAO3-C71S/C190S/C395S (human) (UniProt Q9H6Q4); assay: as above
[4] = biological target: T1, 3HA-3FLAG-tagged NUBP2 (nucleotide-binding protein 2) (human); assay: affinity purification with mass spectrometry; anti-HA beads on lysates of Flp-In 293 cells expressing the 3HA-3FLAG-tagged bait (NUBP2 or CIAO3); 100 mM Tris-HCl pH 8.0, 150 mM NaCl, 5% glycerol, 0.1% NP-40, 4 °C; glycine elution; shotgun (data-dependent) proteomics, spectral counts or MS1 label-free quantification; CIAO3 cells treated with 100 μg/ml FAC or 100 μM DFO for 8 h
[5] = biological target: 3HA-3FLAG-CIAO3, wildtype (human) (UniProt Q9H6Q4); assay: affinity purification with mass spectrometry; anti-HA beads on lysates of Flp-In 293 cells expressing the 3HA-3FLAG-tagged bait (NUBP2, wildtype or mutant CIAO3); targeted proteomics assay (parallel reaction monitoring) of CIA components and substrates; CIAO3 purifications normalised to CIAO3; wildtype CIAO3 cells also treated with FAC or DFO for 8 h
[6] = biological target: 3HA-3FLAG-CIAO3, wildtype (human) (UniProt Q9H6Q4); assay: affinity purification with mass spectrometry; anti-HA beads on lysates of Flp-In 293 cells expressing the 3HA-3FLAG-tagged bait (NUBP2 or CIAO3); 100 mM Tris-HCl pH 8.0, 150 mM NaCl, 5% glycerol, 0.1% NP-40, 4 °C; glycine elution; shotgun (data-dependent) proteomics, spectral counts or MS1 label-free quantification; CIAO3 cells treated with 100 μg/ml FAC or 100 μM DFO for 8 h

- binding [1]: binds
- binding [2]: binds
- binding [3]: binds
- binding [4]: binds
B1: CDKAL1 (protein, UniProt Q5VV42 1-579)
chain: MPSASCDTLLDDIEDIVSQEDSKPQDRHFVRKDVVPKVRRRNTQKYLQEEENSPPSDSTIPGIQKIWIRTWGCSHNNSDGEYMAGQLAAYGYKITENASDADLWLLNSCTVKNPAEDHFRNSIKKAQEENKKIVLAGCVPQAQPRQDYLKGLSIIGVQQIDRVVEVVEETIKGHSVRLLGQKKDNGRRLGGARLDLPKIRKNPLIEIISINTGCLNACTYCKTKHARGNLASYPIDELVDRAKQSFQEGVCEIWLTSEDTGAYGRDIGTNLPTLLWKLVEVIPEGAMLRLGMTNPPYILEHLEEMAKILNHPRVYAFLHIPVQSASDSVLMEMKREYCVADFKRVVDFLKEKVPGITIATDIICGFPGETDQDFQETVKLVEEYKFPSLFINQFYPRPGTPAAKMEQVPAQVKKQRTKDLSRVFHSYSPYDHKIGERQQVLVTEESFDSKFYVAHNQFYEQVLVPKNPAFMGKMVEVDIYESGKHFMKGQPVSDAKVYTPSISKPLAKGEVSGLTKDFRNGLGNQLSSGSHTSAASQCDSASSRMVLPMPRLHQDCALRMSVGLALLGLLFAFFVKVYN

- binding [5]: binds
- binding [6]: binds
B2: nucleotide-binding protein 2 (NUBP2), endogenous (protein, UniProt Q9Y5Y2 1-271)
chain: T1 sequence

- binding [1]: binds
B3: DNA2 (protein, UniProt P51530 1-1060)
chain: MEQLNELELLMEKSFWEEAELPAELFQKKVVASFPRTVLSTGMDNRYLVLAVNTVQNKEGNCEKRLVITASQSLENKELCILRNDWCSVPVEPGDIIHLEGDCTSDTWIIDKDFGYLILYPDMLISGTSIASSIRCMRRAVLSETFRSSDPATRQMLIGTVLHEVFQKAINNSFAPEKLQELAFQTIQEIRHLKEMYRLNLSQDEIKQEVEDYLPSFCKWAGDFMHKNTSTDFPQMQLSLPSDNSKDNSTCNIEVVKPMDIEESIWSPRFGLKGKIDVTVGVKIHRGYKTKYKIMPLELKTGKESNSIEHRSQVVLYTLLSQERRADPEAGLLLYLKTGQMYPVPANHLDKRELLKLRNQMAFSLFHRISKSATRQKTQLASLPQIIEEEKTCKYCSQIGNCALYSRAVEQQMDCSSVPIVMLPKIEEETQHLKQTHLEYFSLWCLMLTLESQSKDNKKNHQNIWLMPASEMEKSGSCIGNLIRMEHVKIVCDGQYLHNFQCKHGAIPVTNLMAGDRVIVSGEERSLFALSRGYVKEINMTTVTCLLDRNLSVLPESTLFRLDQEEKNCDIDTPLGNLSKLMENTFVSKKLRDLIIDFREPQFISYLSSVLPHDAKDTVACILKGLNKPQRQAMKKVLLSKDYTLIVGMPGTGKTTTICTLVRILYACGFSVLLTSYTHSAVDNILLKLAKFKIGFLRLGQIQKVHPAIQQFTEQEICRSKSIKSLALLEELYNSQLIVATTCMGINHPIFSRKIFDFCIVDEASQISQPICLGPLFFSRRFVLVGDHQQLPPLVLNREARALGMSESLFKRLEQNKSAVVQLTVQYRMNSKIMSLSNKLTYEGKLECGSDKVANAVINLRHFKDVKLELEFYADYSDNPWLMGVFEPNNPVCFLNTDKVPAPEQVEKGGVSNVTEAKLIVFLTSIFVKAGCSPSDIGIIAPYRQQLKIINDLLARSIGMVEVNTVDKYQGRDKSIVLVSFVRSNKDGTVGELLKDWRRLNVAITRAKHKLILLGCVPSLNCYPPLEKLLNHLNSEKLIIDLPSREHESLCHILGDFQRE

- binding [5]: binds
- binding [1]: binds
- binding [6]: binds
- binding [4]: binds
B4: nucleotide-binding protein 1 (NUBP1) (protein, UniProt P53384 1-320)
chain: MEEVPHDCPGADSAQAGRGASCQGCPNQRLCASGAGATPDTAIEEIKEKMKTVKHKILVLSGKGGVGKSTFSAHLAHGLAEDENTQIALLDIDICGPSIPKIMGLEGEQVHQSGSGWSPVYVEDNLGVMSVGFLLSSPDDAVIWRGPKKNGMIKQFLRDVDWGEVDYLIVDTPPGTSDEHLSVVRYLATAHIDGAVIITTPQEVSLQDVRKEINFCRKVKLPIIGVVENMSGFICPKCKKESQIFPPTTGGAELMCQDLEVPLLGRVPLDPLIGKNCDKGQSFFIDAPDSPATLAYRSIIQRIQEFCNLHQSKEENLISS

From PMC9243173
